Measured values published in paper PMC10651854.
These are yes or no findings as the source states them, for the method shown. Binding seen in cells or lysates may run through a third protein. These calls come from enrichment with a bait or labelling near it, and not all partners need be listed.

Biological target: circHECTD1-encoded functional peptide 463aa (human (endogenous in GBM cells))
Test: affinity purification with mass spectrometry; IP of 463aa combined with MS analysis; proteins separated by SDS-PAGE, bands cut out, timsTOF pro mass spectrometer

B1: Nuclear receptor subfamily 2 group F member 1 (NR2F1) (protein, UniProt P10589 1-423)
chain: MAMVVSSWRDPQDDVAGGNPGGPNPAAQAARGGGGGAGEQQQQAGSGAPHTPQTPGQPGAPATPGTAGDKGQGPPGSGQSQQHIECVVCGDKSSGKHYGQFTCEGCKSFFKRSVRRNLTYTCRANRNCPIDQHHRNQCQYCRLKKCLKVGMRREAVQRGRMPPTQPNPGQYALTNGDPLNGHCYLSGYISLLLRAEPYPTSRYGSQCMQPNNIMGIENICELAARLLFSAVEWARNIPFFPDLQITDQVSLLRLTWSELFVLNAAQCSMPLHVAPLLAAAGLHASPMSADRVVAFMDHIRIFQEQVEKLKALHVDSAEYSCLKAIVLFTSDACGLSDAAHIESLQEKSQCALEEYVRSQYPNQPSRFGKLLLRLPSLRTVSSSVIEQLFFVRLVGKTPIETLIRDMLLSGSSFNWPYMSIQCS
Question: Which binding does the source give for B1 here?
Answer: The binding was “binds”.
